These are yes or no findings as the source states them, for the method shown. Some results given as binding are weak or reduced against the parent protein; the word gives no strength.
Molecular target: human ROR1-Fc (CHO) (human)
Experiment: ELISA, plate coated with human ROR1-hFc, HisMyc-tagged VNAR at a single 5 ug/mL, Abs 450 nm; no blank bar shown

| Binder | binding |
| --- | --- |
| AA5.S (VNAR) VNAR: TRVDQSPSSLSASVGDRVTITCVLTGTGYGLYSSTYWYRKNPGSSDEERIIIGGRYSESVNKGSKSFTLTISSLQPEDSATYYCRAREARHPWLRQWYDGAGTKVEIKQ | binds |
| AC5.S (VNAR) VNAR: TRVDQSPSSLSASVGDRVTITCVLTDTSYGLYSSTYWYRKNPGSSNKERMSISGRYSESVNKGSKSFTLTISSLQPEDSATYYCRAREARHPWLRQWYDGAGTKVEIKQ | binds |

From patent publication US20250375530A1, “ROR1/EGFR BI-SPECIFIC ANTIGEN BINDING MOLECULES” (ALMAC DISCOVERY LIMITED, priority 2022, published 2025)
